{
  "source": "paper PMC5996148",
  "assay_in_all_cases": "protein microarray (ProtoArray v5.0), streptavidin-Alexa Fluor 647",
  "details_in_all_cases": "3'-biotin; 20 mM Tris (pH 7.5), 5 mM MgCl2, 100 mM KCl, 0.1% Tween-20, A/T-rich and random oligonucleotide blockers; temperature not stated; high values mean tight binding",
  "key": {"[1]": {"system": "ERRFI1 (human)"}, "[2]": {"system": "ETFB (human)"}, "[3]": {"system": "ETHE1 (human)"}, "[4]": {"system": "ETS1 (human)"}, "[5]": {"system": "EXO1 (human)"}, "[6]": {"system": "EXOC7 (human)"}, "[7]": {"system": "EXOSC7 (human)"}, "[8]": {"system": "Ecto-NOX disulfide-thiol exchanger 2 (human)"}, "[9]": {"system": "Elongation factor 1-gamma (human)"}, "[10]": {"system": "Endophilin-B2 (human)"}, "[11]": {"system": "Endoplasmic reticulum resident protein ERp27 (human)"}, "[12]": {"system": "Endothelial protein C receptor (human)"}, "[13]": {"system": "Enhancer of yellow 2 transcription factor homolog (human)"}, "[14]": {"system": "Epidermis-type lipoxygenase 3 (human)"}, "[15]": {"system": "Epididymal sperm-binding protein 1 (human)"}, "[16]": {"system": "Ermin (human)"}, "[17]": {"system": "Erythropoietin (human)"}, "[18]": {"system": "Eukaryotic translation initiation factor 3 subunit E (human)"}, "[19]": {"system": "Exocyst complex component 3 (human)"}, "[20]": {"system": "F3 (human)"}},
  "note": "Several values for one entry are separate records, joined by “and”; a condition that tells them apart may be missing. Identical values can stand only once. Some of the results follow.",
  "data": [
    {"sequence": "GGGAGGCTGAGGCAGG [G4-1 biotinylated (PQS2)]", "values": [
      {"measurement": "binding signal", "setting": "[1]", "result": -0.322, "unit": "z-score"},
      {"measurement": "binding signal", "setting": "[2]", "result": -0.319, "unit": "z-score"},
      {"measurement": "binding signal", "setting": "[3]", "result": -0.352, "unit": "z-score"},
      {"measurement": "binding signal", "setting": "[4]", "result": -0.336, "unit": "z-score"},
      {"measurement": "binding signal", "setting": "[5]", "result": -0.324, "unit": "z-score"},
      {"measurement": "binding signal", "setting": "[6]", "result": -0.283, "unit": "z-score"},
      {"measurement": "binding signal", "setting": "[7]", "result": -0.345, "unit": "z-score"},
      {"measurement": "binding signal", "setting": "[8]", "result": -0.333, "unit": "z-score"},
      {"measurement": "binding signal", "setting": "[9]", "result": -0.359, "unit": "z-score"},
      {"measurement": "binding signal", "setting": "[10]", "result": -0.321, "unit": "z-score"},
      {"measurement": "binding signal", "setting": "[11]", "result": -0.276, "unit": "z-score"},
      {"measurement": "binding signal", "setting": "[12]", "result": -0.333, "unit": "z-score"},
      {"measurement": "binding signal", "setting": "[13]", "result": -0.341, "unit": "z-score"},
      {"measurement": "binding signal", "setting": "[14]", "result": -0.317, "unit": "z-score"},
      {"measurement": "binding signal", "setting": "[15]", "result": -0.241, "unit": "z-score"},
      {"measurement": "binding signal", "setting": "[16]", "result": "-0.265 z-score and -0.302 z-score"},
      {"measurement": "binding signal", "setting": "[17]", "result": -0.354, "unit": "z-score"},
      {"measurement": "binding signal", "setting": "[18]", "result": -0.348, "unit": "z-score"},
      {"measurement": "binding signal", "setting": "[19]", "result": -0.363, "unit": "z-score"},
      {"measurement": "binding signal", "setting": "[20]", "result": -0.312, "unit": "z-score"}
    ]}
  ]
}
